Results published in patent US20170306005A1 (NASCIENT, published 2017).
Residue numbers refer to the chain shown, from its start. Names may count otherwise. These are yes or no findings as the source states them, for the method shown. Some binding calls cover weakened binding; strength is not graded here. For some of these results: Sequences can lack the tags named with a protein.

Columns and labels:
[1] = biological target: T1, mouse tenascin-C rCd4-His-FBG (rat; mouse, UniProt P05540 207-392, limits assumed); assay: SPR, captured Fab, 25 C
T1 construct: domain: domains 3 and 4; C-terminal FBG fusion; biotinylated in the ELISA screen; also called Mu TNC; mouse TNC rCd4-His-FBG; not shown: 6His tag
T1 sequence (chain (part 1 of 2)): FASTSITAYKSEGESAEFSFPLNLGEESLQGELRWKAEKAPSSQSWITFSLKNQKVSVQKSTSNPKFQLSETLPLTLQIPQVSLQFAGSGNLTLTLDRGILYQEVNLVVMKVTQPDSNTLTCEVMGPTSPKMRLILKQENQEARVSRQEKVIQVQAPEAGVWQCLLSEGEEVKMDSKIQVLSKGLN
T1 sequence (chain (part 2 of 2)): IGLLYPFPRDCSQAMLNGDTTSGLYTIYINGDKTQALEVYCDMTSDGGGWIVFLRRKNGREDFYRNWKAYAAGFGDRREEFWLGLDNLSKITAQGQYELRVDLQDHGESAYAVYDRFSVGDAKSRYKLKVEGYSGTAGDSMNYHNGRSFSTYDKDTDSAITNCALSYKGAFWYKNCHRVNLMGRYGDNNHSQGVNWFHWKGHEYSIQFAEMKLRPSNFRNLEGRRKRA
Method: (§1) Experiments were performed using a BIAcore T100 instrument with CM5 sensor chip according to the protocol provided with the Human Fab Capture Kit (GE, 28-9583-25). […] After reference signal subtraction, the data was fitted to a global 1:1 fit using the T100 BIAevaluation software (FIGS. 6 a-d).

[2] = biological target: T2, mouse TNC FBG-rCD4 (mouse; rat) (UniProt P05540); assay: ELISA, coated FBG-rCD4, purified Fab
T2 sequence: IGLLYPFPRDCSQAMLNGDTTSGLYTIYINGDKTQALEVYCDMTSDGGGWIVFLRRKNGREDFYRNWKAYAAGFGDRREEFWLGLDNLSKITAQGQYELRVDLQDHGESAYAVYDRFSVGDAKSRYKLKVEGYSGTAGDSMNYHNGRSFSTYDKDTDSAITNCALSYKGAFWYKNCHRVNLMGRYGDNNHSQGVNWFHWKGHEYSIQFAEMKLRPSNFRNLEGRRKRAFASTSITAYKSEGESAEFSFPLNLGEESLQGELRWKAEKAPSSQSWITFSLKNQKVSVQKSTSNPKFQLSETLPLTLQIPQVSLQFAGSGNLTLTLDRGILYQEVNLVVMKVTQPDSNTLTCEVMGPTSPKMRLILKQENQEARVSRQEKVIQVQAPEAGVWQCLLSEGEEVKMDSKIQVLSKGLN

[3] = biological target: T3, dog TNC FBG-rCD4 (dog; rat) (UniProt P05540); assay: ELISA, coated FBG-rCD4, purified Fab
T3 sequence: T2 sequence with I29L, T34A, S89H, Q104R, E108K, S109T, S124T, N142A, Y152F

[4] = biological target: T4, human TNR FBG-rCd4 (human; rat) (UniProt P05540); assay: ELISA, coated FBG-rCD4, purified Fab
T4 sequence: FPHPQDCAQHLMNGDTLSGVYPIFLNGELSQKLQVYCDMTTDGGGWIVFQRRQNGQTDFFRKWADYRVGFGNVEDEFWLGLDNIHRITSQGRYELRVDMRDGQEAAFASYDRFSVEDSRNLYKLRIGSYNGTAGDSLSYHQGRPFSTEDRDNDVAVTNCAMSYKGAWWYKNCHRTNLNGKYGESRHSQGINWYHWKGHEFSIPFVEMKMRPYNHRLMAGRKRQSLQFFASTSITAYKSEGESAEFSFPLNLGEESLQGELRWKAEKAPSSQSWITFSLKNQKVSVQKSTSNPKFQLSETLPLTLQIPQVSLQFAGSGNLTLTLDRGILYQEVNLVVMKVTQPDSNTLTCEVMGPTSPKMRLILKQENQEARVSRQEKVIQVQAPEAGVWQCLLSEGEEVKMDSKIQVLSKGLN

rat TNC FBG-rCD4 (rat) [5] = biological target: T5, rat TNC FBG-rCD4 (rat) (UniProt P05540); assay: ELISA, coated FBG-rCD4, purified Fab
T5 sequence: T2 sequence with A72T

[6] = biological target: T2, mouse TNC FBG-rCD4 (mouse; rat); assay: ELISA (DELFIA), antigen coated on the well, purified Fab at 50 nM, detected with anti-kappa or anti-lambda mAb and Europium-conjugated anti-mouse mAb
[7] = biological target: T3, dog TNC FBG-rCD4 (dog; rat); assay: as above
rat TNC FBG-rCD4 (rat) [8] = biological target: T5, rat TNC FBG-rCD4 (rat); assay: as above
[9] = biological target: T6, rat tenascin-C rCd4-His-FBG (rat, UniProt P05540 207-392, limits assumed); assay: SPR, captured Fab, 25 C
T6 construct: domain: domains 3 and 4; C-terminal FBG fusion; also called Rat TNC; rat TNC rCD4-His-FBG; not shown: 6His tag
T6 sequence (chain (part 1 of 2)): T1 sequence (chain (part 1 of 2))
T6 sequence (chain (part 2 of 2)): T1 sequence (chain (part 2 of 2)) with A72T
Method: as §1

[10] = biological target: T4, human TNR FBG-rCd4 (human; rat); assay: ELISA (DELFIA), antigen coated on the well, purified Fab at 50 nM, detected with anti-kappa or anti-lambda mAb and Europium-conjugated anti-mouse mAb
[11] = biological target: T1, mouse tenascin-C rCd4-His-FBG; assay: SPR, captured purified IgG4, 37 C
Method: (§2) Detailed kinetic parameters were evaluated for the 9 prioritised IgG4 antibodies. Binding characteristics were determined for interaction with human, rat and dog TNC rCD4-His-FBG, and human TNR rCD4-His-FBG. Kinetic assays followed essentially the same protocols as for the off-rate determinations described above, with some modifications as follows. […] Purified anti-FBG IgG4 was diluted to a concentration of 3.5 nM in PBS, pH 7.4, 0.05% Tween-20 and injected into FC2 at a flow rate of 10 μl/min, 60 s contact time. […] Antigens were prepared by doubling dilution in PBS, pH 7.4, 0.05% Tween-20 (highest concentration 100 nM except mouse rCD4-His-FBG which was 7 nM). Assays were performed at 37° C. (30 μl/min, 120 s contact time; mouse rCD4-His-FBGFBG 10 μl/min, 60 s contact time), with both the flow cell and injection chamber equilibrated to this temperature. As before, kinetic parameters were determined by reference cell subtraction and fitting the sensogram experimental data assuming a 1:1 interaction using BIAevaluation software (GE, BR-1005-97).

[12] = biological target: T7, human tenascin-C rCd4-His-FBG (rat; human, UniProt P05540 207-392, limits assumed); assay: SPR, captured purified IgG4, 37 C
T7 construct: domain: domains 3 and 4; C-terminal FBG fusion; biotinylated in the ELISA and HTRF screens; also called Hu TNC; human TNC rCd4-His-FBG; not shown: 6His tag
T7 sequence (chain (part 1 of 2)): T1 sequence (chain (part 1 of 2))
T7 sequence (chain (part 2 of 2)): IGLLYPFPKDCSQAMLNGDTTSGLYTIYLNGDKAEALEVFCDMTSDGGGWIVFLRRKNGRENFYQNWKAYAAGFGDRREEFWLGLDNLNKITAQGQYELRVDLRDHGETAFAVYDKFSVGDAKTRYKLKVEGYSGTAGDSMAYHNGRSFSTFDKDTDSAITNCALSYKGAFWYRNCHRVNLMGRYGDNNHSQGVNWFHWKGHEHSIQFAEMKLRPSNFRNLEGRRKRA
Method: as §2

Measured: binding

B1: Fab F3 (Fab, V domains shown)
VH: EVQLLESGGGLVQPGGSLRLSCAASGFTFSSYGMHWVRQAPGKGLEWVAVISYDGSNKYYADSVKGRFTISRGNSKNTLYLQMNSLKAEDTAVYYCAREGYDQLFSAESNAFDIWGQGTLVTVSS
VL: NFMLAQPHSVSESPGKTVTISCTRSSGSIASYFVQWFQQRPGSAPTAVIYEDNQRPSGVPDRFSGSIDSSSNSASLTISGLKTEDEADYYCQSYDSSNWVFGGGTKVTVLG
notes: monomeric Fab
not listed: [9] | [10] | [11] | [12]
binds: all other assays above

B2: Fab B12 (Fab, V domains shown)
VH: QVQLVESGGGLVQPGRSLRLSCAASGFTFDDYAMHWVRQAPGKGLEWVSGISGSGGSTYYADSVKGRFTISRDNAKNSLYLQMNSLRAEDTALYYCAKDISAVPDTFDIWGQGTMVTVSS
VL: DIQMTQSPASLPTPVGDRVTITCRASQYIQGFLNWYQQKPGKAPKLLIYDASNLETGVPSRFSGSGSGTDFTLTISSLQPEDFATYYCQQSYSTPQTFGQGTKVDIKR
notes: monomeric Fab
not listed: [11] | [12]
binds: all other assays above

B3: Fab D8 (Fab, V domains shown)
VH: EVQLVQSGAEVKKPGASVKVSCKASGYTFTSYGISWVRQAPGQGLEWMGWISAYNGNTNYAQKLQGRVTMTTDTSTSTAYMELRSLRSDDTAVYYCARNQDSSSDYWGQGTLVTVSS
VL: B2 VL with P14S, P95L
notes: monomeric Fab
not listed: [9] | [10] | [11] | [12]
binds: all other assays above

B4: 160_01_A4 human IgG4 (antibody, V domains shown)
VH: EVRLVQSGAEVKKPGASVKVSCKVSGYTLTELSMHWVRQAPGKGLEWMGGFDPEDGETIYAQKFQGRVTMTEDTSTDTAYMELSSLRSEDTAVYYCATAQKETLGNAIWGQGTLVTVSS
VL: B2 VL with P14S, K45R, D50A, N53T, E55Q, T56D, S67Y, Q96W, D105E
notes: human IgG4 with hinge S241P; also called Antibody 160 01 A4 (derived from 2A5)
binds: [11] | [12]

B5: 162_02_D3 human IgG4 (antibody, V domains shown)
VH: B4 VH with K101I, E102H, T103P, N106L, A107T, I108Y
VL: B2 VL with P14S, K45R, D50A, N53T, E55Q, T56D, S67Y, Q96W, D105E
notes: human IgG4 with hinge S241P; also called Antibody 162 02 D3 (derived from 2A5)
binds: [11]

B6: 165_13_B1 human IgG4 (antibody, V domains shown)
VH: B2 VH with D99V, I100M, A102S, V103M, P104E, T106A
VL: B2 VL
notes: human IgG4 with hinge S241P
binds: [11] | [12]
